Some of these results come from one statement about several compounds together.
tested on: corn rust (Puccinia sorghi Schw.); experiment: Protective effect against corn rust on potted plants; format: in vivo; details: 400 ppm, foliar spray
Method: Fungicidal activity of the compounds in the present invention against many kinds diseases were carried out. The procedure of fungicidal activity determination is as follows:
The fungicidal activity was tested in vivo manner on the potted plants. The test compounds of the present invention were dissolved in proper solvent (choosing the solvent according their dissolving ability to the compounds, the solvents could be acetone, methanol or N,N-dimethylformide, etc. The volume ratio between solvent and liquid sprayed was equal to or less than 0.05) and dilute with water contain 0.1% Tween 80 to given concentrations. Compounds of present invention was sprayed onto the leaves of seedling according to the designed concentration. Meanwhile, water was set as the blank control, three replicates were set for each treatment, the spore suspension were inoculated on the second day after treatment, then the plants were placed in an artificial climate chamber (temperature: day 25° C., night 20° C., relative humidity 95 to 100%). 24 hours later, the plants were moved to green house to cultivated. The plants which not need to control humidity was inoculated spore suspension in green house and cultivated in green house directly. The results were investigated after the plants were fully infected relative to the blank control (usually one week). The test resluts grading 100-0 refers to the <A Manual of Assessment Keys for Plant Diseases> which edited by American Phytopathological Society. “100” refer to no infection and “0” refer to the most serious infection
Protective Effect Against Corn Rust (Puccinia sorghi Schw.):
According the test method described above, parallel test were carried out between compound 13 of present invention and the known compound KC1.
According the test method described above, parallel test were carried out between compound 11 of present invention and the known compound KC2.
According the test method described above, parallel test were carried out between compound 71 of present invention and the known compounds KC5 and KC6.

Row | SMILES | protective effect against corn rust
1 | CCCCC(C)Oc1cccc(NC(=O)c2cn(C)nc2C(C)C)c1C (stereo not drawn) [Compound 2] | ≥ 80%
2 | CCCCC(C)Oc1cccc(NC(=O)c2c(C)nn(C)c2Cl)c1C (stereo not drawn) [Compound 4] | ≥ 80%
3 | CCCCC(C)Oc1cccc(NC(=O)c2c(C(F)F)nn(C)c2Cl)c1C (stereo not drawn) [Compound 11] | ≥ 80%
4 | CCCCC(C)Oc1cccc(NC(=O)c2cn(C)nc2C(F)(F)F)c1C (stereo not drawn) [Compound 13] | ≥ 80%
5 | CCCCC(C)Oc1cccc(NC(=O)c2sc(C)nc2C(F)(F)F)c1C (stereo not drawn) [Compound 71] | ≥ 80%
6 | CCCC(C)Oc1cccc(NC(=O)c2sc(C(F)(F)F)nc2CC)c1C (stereo not drawn) [Compound 111] | ≥ 80%

Source: US10315998B2, “Amide compound and the preparation method and use thereof” (SHENYANG SINOCHEM AGROCHEMICALS R&D CO., LTD, priority 2015, dated 2019)
